The target in this assay is T1, GST-Laf1 (S. cerevisiae) (UniProt Q03177).
T1 sequence: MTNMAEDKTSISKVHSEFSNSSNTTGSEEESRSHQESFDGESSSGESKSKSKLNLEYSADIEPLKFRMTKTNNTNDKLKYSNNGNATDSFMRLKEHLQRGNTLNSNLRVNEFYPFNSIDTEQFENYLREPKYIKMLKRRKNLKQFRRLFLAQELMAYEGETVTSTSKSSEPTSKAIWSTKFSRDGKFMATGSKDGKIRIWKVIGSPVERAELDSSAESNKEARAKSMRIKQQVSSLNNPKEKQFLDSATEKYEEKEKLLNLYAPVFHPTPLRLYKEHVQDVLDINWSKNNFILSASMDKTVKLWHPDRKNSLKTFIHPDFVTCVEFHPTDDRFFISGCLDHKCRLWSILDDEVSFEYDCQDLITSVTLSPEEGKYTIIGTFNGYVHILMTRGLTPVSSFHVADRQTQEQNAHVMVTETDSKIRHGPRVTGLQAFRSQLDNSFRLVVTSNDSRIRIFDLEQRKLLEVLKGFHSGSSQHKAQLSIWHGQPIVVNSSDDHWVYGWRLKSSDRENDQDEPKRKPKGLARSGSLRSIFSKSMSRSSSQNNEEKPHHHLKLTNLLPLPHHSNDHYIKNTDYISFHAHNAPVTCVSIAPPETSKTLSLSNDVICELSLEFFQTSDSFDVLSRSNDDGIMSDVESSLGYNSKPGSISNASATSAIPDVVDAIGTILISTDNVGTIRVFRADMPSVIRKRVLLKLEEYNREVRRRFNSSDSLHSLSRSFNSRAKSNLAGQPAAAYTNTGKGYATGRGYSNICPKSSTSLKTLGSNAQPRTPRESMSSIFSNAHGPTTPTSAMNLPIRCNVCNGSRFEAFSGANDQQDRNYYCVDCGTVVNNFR
The experiment in a line: pull-down; GST fusion (bait) and His6-tagged Lam fragment incubated 1 h at 4 °C, complexes on glutathione-agarose beads; binding buffer 81 mM NaCl, 4.5 mM KCl, 1.35 mM MgCl2, 0.09% Triton X-100, 0.1 mg/mL BSA, 20 mM HEPES pH 7.5; four washes; immunoblot (anti-His, anti-GST); both purified. On the technique in general: Immunoblotting shows a protein as a band on a membrane.

Results are given in words; binding and its absence hold for the method and conditions named. Some binding calls cover weakened binding; strength is not graded here. Where a sequence is shown, tags or fusion partners need not be part of it.

B1: Lam2(633-1259)-(His)6 (domain or fragment, UniProt Q06681 633-1259)
chain: FKLEGIEYASEKKNSEFHTLFKDCDINPNEKLIVDHSCALSRDILLQGRMYISDAHIGFFSNILGWVSTVFIPFKEIVQIEKKTTAGIFPNGIVIDTLHTKYIFASFMSRDATFDLITDVWNQIILGKKYRNGFGNNDDGTISDSSSAFFDDSDDNDDDGDLDDDDPDINSTDMTSSDDIDADVFNESNDLGKNQKSTNYLLGPNKHSPTTADFKPSNNDHLVIEANINAPLGKVVNLLYGEDVSYYERILKAQKNFEISPIPNNFLTKKIRDYAYTKPLSGSIGPSKTKCLITDTLEHYDLEDYVKVLSITKNPDVPSGNIFSVKTVFLFSWDKNNSTKLTVYNSVDWTGKSWIKSMIEKGTFDGVADTTKIMISEIKKILSDEDSNINSKHQASNNESEEEIINLPTIGPPVHDPTEPDFQKGKDDTVIDEKINIPVPLGTVFSLLYGDDTSYIKKIIENQNNFNVCDIPKFVNNAREITYTKKLNNSFGPKQTKCIVTETIEHMDLNSFFMVKQIVRSPDVPYGSSFSVHTRFFYSWGDHNTTNMKVVTNVVWTGKSMLKGTIEKGSIDGQRSSTKQLVDDLKKIISNASSTKKKSRRRGKTVNKRKSSPSTIKNEKNEENFED
With B1, the binding entry is reported as “binds weakly”.

The values above are taken from paper PMC7760575.
